# The campaign covered roughly 300,000 compounds. About 3,700 (1.2%) were called active. This list was built around the results that the source calls inconclusive (neither active nor inactive); the mix of calls is not that of the screen. Calls follow the shape of the full dose curve; tested in HEK293 cells. Where the call is inconclusive, the potency comes from a doubtful curve fit.
# Experiment: qHTS for Inhibitors of binding or entry into cells for Lassa Virus; also: nearly all actives have a fitted effect of over 50% in size
# Settings: Lassa virus pseudotype entry inhibition, cell reporter; series mostly up to 37.9 µM
# Potency is read from the fitted curve at half-maximal effect.
row,SMILES,Potency
1,CCc1ccc(S(=O)(=O)c2nnn3c2nc(NCCc2ccccc2)c2sccc23)cc1,"inconclusive: 10 µM [inhibitor, partial curve]"
2,CCOC(=O)c1ccc(NC(=O)CSc2nccn2C)cc1,"inconclusive: 6.31 µM [activator, single point]"
3,CCc1ccc(N=c2c([N+](=O)[O-])nn(-c3ccc4c(c3)OCCO4)n2O)cc1,inactive
4,COc1cc(OC)cc(N(C(=O)c2ccco2)C(C(=O)NC2CCCC2)c2ccc(N3CCOCC3)cc2)c1 (stereo not drawn),"inconclusive: 12.6 µM [inhibitor, partial curve, poor fit]"
5,CC(C)(C)c1ccc(OCCCNCc2ccccc2)cc1,"inconclusive: 20.6 µM [inhibitor, single point]"
6,COC(=O)N/N=C/c1cc(N=Nc2ccccc2)ccc1O,inactive
7,CC(C)CC(=O)NC(c1ccccc1Cl)c1c(O)ccc2ccccc12 (stereo not drawn),"inconclusive: 14.1 µM [inhibitor, single point]"
8,Cc1ccc(CNC(=O)c2ccc(COc3ccccc3)cc2)cc1,"inconclusive: 5.17 µM [inhibitor, full curve]"
9,CC(=O)c1ccc(NC(=O)Nc2ccc(Cl)cc2)cc1,"inconclusive: 20.6 µM [inhibitor, single point]"
10,COc1cc(C(=O)Oc2cccc(C(=S)N3CCOCC3)c2)cc(OC)c1OC,"inconclusive: 35.5 µM [inhibitor, single point]"
11,CC(=O)Nc1ccc(S(=O)(=O)Nc2cccc(-c3ccc(N4CCC(C)CC4)nn3)c2)cc1,active: 11.2 µM
12,C#CC(C)OC(=O)Nc1cnccc1C(F)(F)F (stereo not drawn),inactive
13,COc1ccccc1Oc1nc2c(c(=O)n(C)c(=O)n2C)n1Cc1cccc(Br)c1,"inconclusive: 2.82 µM [inhibitor, partial curve, poor fit]"
14,COCCNC(=O)c1ccc2c(c1)N(Cc1cccc(Cl)c1)C(=O)c1ccccc1S2(=O)=O,"inconclusive: 0.562 µM [activator, full curve, poor fit]"
15,Cc1ccc(OC(=O)c2cc(-c3ccccc3)nc3ccc(C)cc23)cc1,inactive
16,O=C(OCC(=O)N1CCOCC1)c1ccccc1OCc1ccccc1Cl,"inconclusive: 20 µM [inhibitor, partial curve, poor fit]"
17,CC(=O)NC(C(=O)c1ccccc1)N1CCCCC1 (stereo not drawn),"inconclusive: 31.6 µM [activator, single point]"
18,COc1cc2oc3ccccc3c2cc1N(CC(=O)N1CCCCC1)S(=O)(=O)c1ccc(C)cc1,"inconclusive: 35.5 µM [inhibitor, single point]"
19,Cc1ccc(C(c2nnnn2CCc2ccccc2)N2CCSCC2)cc1 (stereo not drawn),"inconclusive: 35.5 µM [inhibitor, single point]"
20,O=C(Nc1cc(S(=O)(=O)N2CCCCC2)ccc1N1CCOCC1)c1ccc(F)cc1,inactive
21,CC1=C(C)CC(C(=O)NNC(=O)c2csc(C)c2C)C(C(=O)O)C1 (stereo not drawn),"inconclusive: 0.13 µM [activator, full curve, poor fit]"
22,CN1C(=O)Cc2cc(S(=O)(=O)CCC(=O)Nc3cccc(C(F)(F)F)c3)ccc21,inactive

# Reformatted: results already given
row | SMILES | Potency
7 | CC(C)CC(=O)NC(c1ccccc1Cl)c1c(O)ccc2ccccc12 (stereo not drawn) | inconclusive: 14.1 µM [inhibitor, single point]
18 | COc1cc2oc3ccccc3c2cc1N(CC(=O)N1CCCCC1)S(=O)(=O)c1ccc(C)cc1 | inconclusive: 35.5 µM [inhibitor, single point]

# Next part:

row,SMILES,Potency
1,CC(=O)C1CCC2C3CCC4CC(=O)CCC4(C)C3C(C)(O)CC12C (stereo not drawn),"inconclusive: 2.51 µM [inhibitor, partial curve, poor fit]"
2,CCCCCCN1C[C@H](n2cc(COC(=O)c3ccccc3)nn2)[C@@H](O)C[C@H]1c1ccc(Cl)cc1,"inconclusive: 9.95 µM [inhibitor, full curve]"
3,COc1cc(/C=C/C(=O)c2ccc(NS(=O)(=O)c3ccc(C)cc3)cc2)cc(OC)c1O,"inconclusive: 11.2 µM [inhibitor, partial curve, poor fit]"
4,O=C(O)CCN1C(=O)C2CCCCC2C1=O (stereo not drawn),inactive
5,CCOc1ccc(/C=C/C(O)=C2/C(=O)NC3(C)CC2c2ccccc2O3)cc1OC (stereo not drawn),"inconclusive: 4.61 µM [inhibitor, full curve]"
6,COC(=O)[C@]1(C)C=C[C@@H](C)[C@H](c2ccccc2Br)N1C(=O)C(F)(F)F,"inconclusive: 0.0168 µM [inhibitor, full curve, poor fit]"
7,CCOC(=O)c1cc(S(=O)(=O)Nc2ccc(OC)c(Cl)c2)[nH]n1,inactive
8,COc1ccc2c(Sc3ccccc3)c(C(=O)NCc3cccc(OC)c3OC)[nH]c2c1,"inconclusive: 8.91 µM [inhibitor, partial curve]"
9,CC(=O)Nc1nonc1NC(=O)COc1ccccc1,inactive
10,CCN(C(=O)COC(=O)C12CC3CC(CC(NC(C)=O)(C3)C1)C2)C1CCCCC1,inactive
11,Fc1cccc(-c2nc(-c3ccncc3)no2)c1,inactive
12,CCOc1ncccc1C(=O)NNC(=O)c1ccc(NS(=O)(=O)c2cccs2)cc1,"inconclusive: 3.16 µM [activator, single point]"
13,NC(=S)c1c(Cl)cc(C(F)(F)F)cc1Cl,"inconclusive: 1.26 µM [inhibitor, single point]"
14,O=C(Cc1coc2cc3c(cc12)CCC3)NC1CCCCCCC1,inactive
15,C=CCN1C(=O)c2ccccc2Sc2ccc(C(=O)N3CCC4(CC3)OCCO4)cc21,inactive
16,Oc1cccc(C(Nc2ccccn2)c2ccc3cccnc3c2O)c1Cl (stereo not drawn),"inconclusive: 7.08 µM [inhibitor, full curve, poor fit]"
17,COc1ccc(-c2csc(NC(=O)C3CSC4(C)CCC(=O)N34)n2)c(OC)c1 (stereo not drawn),"inconclusive: 35.5 µM [inhibitor, single point]"
18,COc1ccc(OC)c(-c2cc(C(=O)N3CCCc4ccccc43)no2)c1,inactive
19,Brc1ccc(CN2C3=NCCCN3c3ccccc32)cc1,"inconclusive: 4.61 µM [inhibitor, partial curve, poor fit]"
20,CCOCCCNC(=O)C(c1ccc(OC)cc1)N(Cc1cccs1)C(=O)c1ccc(NC(C)=O)cc1 (stereo not drawn),"inconclusive: 1.78 µM [inhibitor, partial curve, poor fit]"
21,CCOCCCN(C)C1CCN(C(=O)c2oc3ccccc3c2NC(=O)Cc2cccc([N+](=O)[O-])c2)CC1,"inconclusive: 35.5 µM [inhibitor, single point]"

# Reference: PubChem BioAssay AID540256 (National Center for Advancing Translational Sciences (NCATS), 2011)
